Where a name gives a salt, the structure may show the parent alone. The list shows a part of the results. The calls rarely recur for the same compound in another form.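 Kinases, fused to nanoluciferase, were expressed in K562 cells; luminescence was measured every 4 h from 2 to 18 h as percent of control (DMSO = 100%, positive control = 0%). A time point is decreased if signal falls significantly (2 sigma). Hits were called by the authors by a rule that is not shown; the count of time points alone does not decide it.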
Columns and labels:
Assay in all cases: number of time points (of 5) at which kinase-Nluc abundance scored as decreased, DMSO-normalised (count); higher = more persistent destabilization
Conditions in all cases: K562; 2-18 h
EGFR_L861Q = EGFR_L861Q (UniProt P00533)
EGFR_T790M = EGFR_T790M (UniProt P00533)
EPHA2 = EPHA2 (UniProt P29317)
ERBB3 = ERBB3 (UniProt P21860)
[1] = molecular target: ERBB4_R711C (clone: ERBB4_mut) (UniProt Q15303)
ERN1 = ERN1 (UniProt O75460)
FGFR1 = FGFR1 (UniProt P11362)
FGFR2 = FGFR2 (UniProt P21802)
FGFR3 = FGFR3 (UniProt P22607)
FGR = FGR (UniProt P09769)

By UniProt entry, the sequences of proteins in these tests, tags left out. Where a name states a change or a piece, a line headed by the entry shows the natural chain unless it says otherwise.
UniProt P29317, whole entry: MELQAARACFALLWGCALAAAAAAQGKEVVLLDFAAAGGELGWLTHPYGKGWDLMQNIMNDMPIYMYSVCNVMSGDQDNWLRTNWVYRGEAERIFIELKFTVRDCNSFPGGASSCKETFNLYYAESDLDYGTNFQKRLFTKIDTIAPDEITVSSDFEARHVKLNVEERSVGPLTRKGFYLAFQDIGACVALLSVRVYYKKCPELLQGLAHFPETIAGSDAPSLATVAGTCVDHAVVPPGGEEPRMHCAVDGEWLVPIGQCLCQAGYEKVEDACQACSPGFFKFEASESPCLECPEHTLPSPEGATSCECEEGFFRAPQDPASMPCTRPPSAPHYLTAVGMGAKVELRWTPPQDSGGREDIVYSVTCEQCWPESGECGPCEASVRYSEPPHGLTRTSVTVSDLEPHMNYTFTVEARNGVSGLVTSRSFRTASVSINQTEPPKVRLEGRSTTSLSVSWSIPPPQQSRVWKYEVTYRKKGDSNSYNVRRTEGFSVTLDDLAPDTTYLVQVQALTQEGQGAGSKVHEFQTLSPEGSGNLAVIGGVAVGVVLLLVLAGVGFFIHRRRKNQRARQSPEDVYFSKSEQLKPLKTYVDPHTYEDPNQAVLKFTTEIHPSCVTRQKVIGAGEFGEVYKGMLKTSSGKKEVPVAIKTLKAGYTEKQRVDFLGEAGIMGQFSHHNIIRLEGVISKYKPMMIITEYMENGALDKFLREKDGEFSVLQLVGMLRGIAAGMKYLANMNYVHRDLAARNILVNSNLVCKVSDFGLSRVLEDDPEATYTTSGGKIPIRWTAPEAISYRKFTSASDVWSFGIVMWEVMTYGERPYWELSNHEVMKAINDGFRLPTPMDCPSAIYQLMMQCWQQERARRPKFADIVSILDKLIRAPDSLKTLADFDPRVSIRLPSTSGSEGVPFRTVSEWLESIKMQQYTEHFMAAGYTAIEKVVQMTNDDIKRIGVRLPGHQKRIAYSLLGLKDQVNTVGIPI
UniProt P21860, whole entry: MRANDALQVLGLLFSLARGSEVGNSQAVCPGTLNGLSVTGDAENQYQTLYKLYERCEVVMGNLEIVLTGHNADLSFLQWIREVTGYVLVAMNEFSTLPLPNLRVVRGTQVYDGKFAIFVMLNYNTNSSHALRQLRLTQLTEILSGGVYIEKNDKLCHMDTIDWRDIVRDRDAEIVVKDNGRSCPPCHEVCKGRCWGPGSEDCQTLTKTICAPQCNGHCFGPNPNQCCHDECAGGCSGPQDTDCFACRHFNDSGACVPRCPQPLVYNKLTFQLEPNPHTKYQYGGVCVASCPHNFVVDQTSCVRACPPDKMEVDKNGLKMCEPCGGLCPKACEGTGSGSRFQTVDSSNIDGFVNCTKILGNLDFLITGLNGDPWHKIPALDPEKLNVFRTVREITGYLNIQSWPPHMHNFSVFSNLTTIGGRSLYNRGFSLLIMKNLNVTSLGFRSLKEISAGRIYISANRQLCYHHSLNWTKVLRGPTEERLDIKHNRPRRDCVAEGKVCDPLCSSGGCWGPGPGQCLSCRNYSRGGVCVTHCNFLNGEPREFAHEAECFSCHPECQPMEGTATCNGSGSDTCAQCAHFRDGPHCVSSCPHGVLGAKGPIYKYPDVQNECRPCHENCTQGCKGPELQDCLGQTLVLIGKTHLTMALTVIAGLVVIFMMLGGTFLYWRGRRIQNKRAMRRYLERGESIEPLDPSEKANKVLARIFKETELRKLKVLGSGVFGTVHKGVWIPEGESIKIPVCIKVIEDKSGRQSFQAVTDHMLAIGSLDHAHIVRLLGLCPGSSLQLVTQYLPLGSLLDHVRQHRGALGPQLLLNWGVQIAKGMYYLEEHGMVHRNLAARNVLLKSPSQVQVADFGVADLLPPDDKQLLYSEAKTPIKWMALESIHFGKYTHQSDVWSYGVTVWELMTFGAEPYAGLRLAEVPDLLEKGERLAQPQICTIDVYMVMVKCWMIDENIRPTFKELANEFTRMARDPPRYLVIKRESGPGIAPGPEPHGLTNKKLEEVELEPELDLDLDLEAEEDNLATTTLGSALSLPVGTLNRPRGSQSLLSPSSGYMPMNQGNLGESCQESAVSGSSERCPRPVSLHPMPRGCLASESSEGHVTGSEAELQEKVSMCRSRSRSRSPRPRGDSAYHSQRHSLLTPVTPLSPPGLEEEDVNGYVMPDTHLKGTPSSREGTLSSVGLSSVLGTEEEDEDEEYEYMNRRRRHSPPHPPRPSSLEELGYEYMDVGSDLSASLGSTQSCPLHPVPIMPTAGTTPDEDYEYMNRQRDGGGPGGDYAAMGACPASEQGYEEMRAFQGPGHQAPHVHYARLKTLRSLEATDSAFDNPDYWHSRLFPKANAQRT
UniProt O75460: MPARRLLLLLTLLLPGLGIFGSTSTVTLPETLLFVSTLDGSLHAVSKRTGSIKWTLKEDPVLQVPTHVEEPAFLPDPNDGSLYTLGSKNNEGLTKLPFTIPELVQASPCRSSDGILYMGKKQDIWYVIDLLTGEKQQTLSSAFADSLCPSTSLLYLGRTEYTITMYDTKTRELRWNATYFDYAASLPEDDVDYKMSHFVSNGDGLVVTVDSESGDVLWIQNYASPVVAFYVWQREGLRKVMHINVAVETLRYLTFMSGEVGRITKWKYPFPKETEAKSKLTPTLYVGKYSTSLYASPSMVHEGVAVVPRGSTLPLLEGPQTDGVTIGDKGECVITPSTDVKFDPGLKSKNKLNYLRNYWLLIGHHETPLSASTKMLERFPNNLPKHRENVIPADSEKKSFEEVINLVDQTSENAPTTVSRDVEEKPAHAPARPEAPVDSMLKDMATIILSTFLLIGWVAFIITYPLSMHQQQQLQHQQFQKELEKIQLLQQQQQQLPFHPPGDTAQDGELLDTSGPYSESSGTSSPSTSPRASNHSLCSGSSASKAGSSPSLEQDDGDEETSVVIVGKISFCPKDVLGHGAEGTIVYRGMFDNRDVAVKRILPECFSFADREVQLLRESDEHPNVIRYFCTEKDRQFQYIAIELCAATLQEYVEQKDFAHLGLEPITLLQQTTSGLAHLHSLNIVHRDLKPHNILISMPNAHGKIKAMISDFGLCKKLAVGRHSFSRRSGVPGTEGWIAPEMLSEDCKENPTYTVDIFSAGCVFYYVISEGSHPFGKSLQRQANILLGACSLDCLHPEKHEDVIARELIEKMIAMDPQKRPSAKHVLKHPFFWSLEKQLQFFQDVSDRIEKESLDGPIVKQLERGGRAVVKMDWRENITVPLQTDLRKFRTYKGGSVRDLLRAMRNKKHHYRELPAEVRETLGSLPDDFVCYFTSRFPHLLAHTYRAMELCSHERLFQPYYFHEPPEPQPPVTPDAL
UniProt P11362, whole entry, looked up: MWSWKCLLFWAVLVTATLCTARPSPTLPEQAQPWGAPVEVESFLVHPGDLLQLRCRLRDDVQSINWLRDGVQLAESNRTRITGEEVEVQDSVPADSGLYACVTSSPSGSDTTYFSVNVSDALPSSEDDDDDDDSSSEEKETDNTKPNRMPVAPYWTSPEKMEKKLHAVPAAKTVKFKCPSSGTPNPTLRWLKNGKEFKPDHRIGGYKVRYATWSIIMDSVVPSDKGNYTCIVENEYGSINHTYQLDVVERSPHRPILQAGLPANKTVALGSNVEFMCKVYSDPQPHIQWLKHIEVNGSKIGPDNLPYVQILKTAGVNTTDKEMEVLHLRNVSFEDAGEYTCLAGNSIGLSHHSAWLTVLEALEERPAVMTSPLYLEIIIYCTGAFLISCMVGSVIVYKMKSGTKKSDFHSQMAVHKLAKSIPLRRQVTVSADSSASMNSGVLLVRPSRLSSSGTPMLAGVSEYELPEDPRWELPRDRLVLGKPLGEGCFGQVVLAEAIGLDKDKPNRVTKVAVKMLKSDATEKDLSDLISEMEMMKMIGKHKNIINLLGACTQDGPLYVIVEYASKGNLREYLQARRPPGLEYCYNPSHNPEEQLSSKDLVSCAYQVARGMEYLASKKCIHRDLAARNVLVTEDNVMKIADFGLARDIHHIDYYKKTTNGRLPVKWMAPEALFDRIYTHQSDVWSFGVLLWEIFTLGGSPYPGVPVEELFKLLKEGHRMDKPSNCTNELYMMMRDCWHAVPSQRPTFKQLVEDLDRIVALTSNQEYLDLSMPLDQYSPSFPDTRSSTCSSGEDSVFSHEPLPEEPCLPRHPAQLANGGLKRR
UniProt P21802, whole entry, looked up: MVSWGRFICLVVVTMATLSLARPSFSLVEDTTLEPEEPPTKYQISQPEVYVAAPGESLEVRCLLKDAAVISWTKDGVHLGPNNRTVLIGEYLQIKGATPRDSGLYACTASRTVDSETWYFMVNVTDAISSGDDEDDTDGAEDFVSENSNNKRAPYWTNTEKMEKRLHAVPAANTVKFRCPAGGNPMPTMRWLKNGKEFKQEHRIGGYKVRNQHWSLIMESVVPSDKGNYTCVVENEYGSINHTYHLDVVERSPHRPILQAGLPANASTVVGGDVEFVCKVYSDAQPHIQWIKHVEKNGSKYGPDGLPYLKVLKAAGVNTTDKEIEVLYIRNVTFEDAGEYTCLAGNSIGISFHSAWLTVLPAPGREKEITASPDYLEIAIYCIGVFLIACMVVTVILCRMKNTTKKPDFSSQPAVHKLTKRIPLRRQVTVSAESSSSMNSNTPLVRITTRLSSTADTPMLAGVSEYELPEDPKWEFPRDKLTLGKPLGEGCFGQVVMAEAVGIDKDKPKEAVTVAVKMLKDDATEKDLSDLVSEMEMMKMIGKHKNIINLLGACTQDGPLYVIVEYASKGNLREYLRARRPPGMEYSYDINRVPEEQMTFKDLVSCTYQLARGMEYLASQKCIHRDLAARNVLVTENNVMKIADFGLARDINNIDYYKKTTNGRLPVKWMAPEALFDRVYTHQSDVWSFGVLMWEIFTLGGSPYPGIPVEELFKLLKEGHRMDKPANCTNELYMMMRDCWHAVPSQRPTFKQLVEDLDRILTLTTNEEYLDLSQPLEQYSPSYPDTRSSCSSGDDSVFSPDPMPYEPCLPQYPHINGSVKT
UniProt P22607, whole entry, looked up: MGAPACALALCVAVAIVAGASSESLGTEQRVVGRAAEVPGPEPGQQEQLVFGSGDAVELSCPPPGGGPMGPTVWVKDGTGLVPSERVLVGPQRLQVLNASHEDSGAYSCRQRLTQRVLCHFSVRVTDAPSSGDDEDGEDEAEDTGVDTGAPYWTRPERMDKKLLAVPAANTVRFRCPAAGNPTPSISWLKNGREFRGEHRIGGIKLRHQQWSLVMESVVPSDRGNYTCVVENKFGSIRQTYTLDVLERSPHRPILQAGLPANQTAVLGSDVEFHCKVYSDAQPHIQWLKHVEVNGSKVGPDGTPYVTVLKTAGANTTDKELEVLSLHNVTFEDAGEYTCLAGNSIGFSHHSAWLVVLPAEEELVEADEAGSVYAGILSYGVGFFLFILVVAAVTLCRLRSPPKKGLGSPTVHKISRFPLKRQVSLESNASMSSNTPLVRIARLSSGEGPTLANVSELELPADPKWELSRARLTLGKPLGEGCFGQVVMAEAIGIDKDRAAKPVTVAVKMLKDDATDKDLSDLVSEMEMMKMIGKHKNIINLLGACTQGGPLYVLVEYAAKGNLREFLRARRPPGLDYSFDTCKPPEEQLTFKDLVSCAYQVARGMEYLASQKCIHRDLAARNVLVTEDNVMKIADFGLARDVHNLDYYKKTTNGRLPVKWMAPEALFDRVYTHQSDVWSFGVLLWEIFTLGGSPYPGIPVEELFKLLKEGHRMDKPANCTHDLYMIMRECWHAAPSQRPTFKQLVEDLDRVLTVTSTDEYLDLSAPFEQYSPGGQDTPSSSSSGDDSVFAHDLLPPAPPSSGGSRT

Compound | number of time points (EGFR_L861Q) | number of time points (EGFR_T790M) | number of time points (EPHA2) | number of time points (ERBB3) | number of time points [1] | number of time points (ERN1) | number of time points (FGFR1) | number of time points (FGFR2) | number of time points (FGFR3) | number of time points (FGR)
Cn1cc(-c2cnn3c(N)c(Br)c([C@@H]4CCCNC4)nc23)cn1 (2.5 µM) | 2 | 0 | 0 | 1 | 2 | 0 | 2 | 2 | 1 | 0
C=CC(=O)Nc1ccc(CN2C(=O)N(c3cc(OC)cc(OC)c3)Cc3cnc(Nc4ccc(N5CCN(C)CC5)cc4)nc32)cc1 (2.5 µM) | 0 | 0 | 0 | 0 | 0 | 0 | 0 | 0 | 0 | 0
C=C1C(=O)O[C@H]2C[C@H](C)C(/C=C/C(C)=O)=CC[C@H]12 [Xanthatin] (2.5 µM) | 0 | 0 | 0 | 0 | 0 | 0 | 0 | 0 | 0 | 0
Cc1ccc(CNc2ncnc3ccc(-c4ccc(CO)o4)cc23)o1 (10 µM) | 0 | 0 | 0 | 0 | 0 | 0 | 0 | 0 | 0 | 0
CC1(C)C(O[C@@H]2OC[C@@H](O)[C@H](O)[C@H]2O)CC[C@]23CC24CC[C@]2(C)[C@@H]([C@@]5(C)CC[C@@H](C(C)(C)O)O5)[C@H](O)C[C@@]2(C)C4C[C@@H](O[C@@H]2O[C@H](CO)[C@@H](O)[C@H](O)[C@H]2O)C13 (some centres undefined) [Astragaloside IV] (10 µM) | 0 | 0 | 0 | 0 | 0 | 0 | 0 | 0 | 0 | 0
COc1cc(OC2CCN(C)CC2)ccc1Nc1ncc2c(n1)n(C1CCCC1)c(=O)n2C (10 µM) | 0 | 0 | 0 | 0 | 0 | 0 | 0 | 0 | 0 | 0
Cc1[nH]c(/C=C2\C(=O)Nc3ccccc32)c(C)c1CCC(=O)O [Orantinib] (10 µM) |  |  | 0 | 0 | 0 | 0 | 0 | 0 | 0 | 0
O=C(NCCN1CCOCC1)c1cc2c(Oc3ccc(NC(=O)C4(C(=O)Nc5ccc(F)cc5)CC4)cc3)ccnc2[nH]1 [Tyrosine kinase inhibitor] (10 µM) | 0 | 0 | 0 | 0 | 0 | 0 | 0 | 0 | 0 | 0
Cc1[nH]c(/C=C2\C(=O)Nc3ccccc32)c(C)c1CCC(=O)O [(Z)-Orantinib] (10 µM) |  |  | 0 | 0 | 0 | 0 | 0 | 0 | 0 | 0
CCN1CCN(Cc2ccc(Nc3ncc(F)c(-c4cc(F)c5nc(C)n(C(C)C)c5c4)n3)nc2)CC1 [Abemaciclib] (2 µM) | 0 | 0 | 1 | 0 | 1 | 0 | 0 | 0 | 0 | 0
COc1cc2c(N3CCN(C(=O)Nc4ccc(OC(C)C)cc4)CC3)ncnc2cc1OCCCN1CCCCC1 [Tandutinib (hydrochloride)] (10 µM) |  |  | 0 | 0 | 0 | 0 | 0 | 0 | 0 | 0
Oc1cc2c(cc1O)C(Cc1cccc3ccccc13)NCC2 (centres undefined) (10 µM) | 0 | 0 | 0 | 0 | 0 | 0 | 0 | 0 | 0 | 0
